Measurements reported in PubChem BioAssay AID1259254 (NCATS, 2017)
This is one part, drawn at random, of about 59,000 reagents. Over the whole deposit, about 1,550 (2.6%) got an active call. 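G2 share is only a proxy for re-replication; each gene was hit by three separate siRNAs, and active genes were retested.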 The raw values are shown without normalisation. Reagents against one gene are numbered here. Not stated in the record: the amount of reagent.

- Assay: 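Finding genes that stop cells copying their DNA twice in one cycle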 (primary screen)
- Cells: human HCT116 colorectal cancer cells
- Reagents: single siRNA against human genes
- Duration: 3 days
- Measurement: 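Imaged Hoechst DNA stain sorts each cell into a cycle phase by DNA amount; per plate, G2 fraction set to 0% for non-targeting and 100% for GMNN siRNA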
- Reading the numbers: G2 robust z-score and G2 cells, % of GMNN control: higher = more G2 cells, more excess DNA replication; raw share of cells in G2: higher = larger share of cells with G2 DNA content
- Call rule: 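Active siRNAs have a G2 robust z of 5 or more median absolute deviations over the median, which in these data means about 38% or higher of GMNN control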

target	siRNA no.	G2 robust z-score	G2 cells, % of GMNN control	raw share of cells in G2 (%)	Outcome
CD79B (GeneID 974)	1	0.114	3.77	5	inactive
CD79B (GeneID 974)	2	5.03	38.4	23.3	active
CD79B (GeneID 974)	3	-0.274	1.04	4.47	inactive
NSMF (GeneID 26012)	1	-0.314	0.758	4.7	inactive
NSMF (GeneID 26012)	2	1.33	12.3	9.27	inactive
NSMF (GeneID 26012)	3	2.32	19.3	10	inactive
PROP1 (GeneID 5626)	1	-0.0889	2.34	4.92	inactive
PROP1 (GeneID 5626)	2	-1.42	-7.04	2.56	inactive
PROP1 (GeneID 5626)	3	-0.442	-0.144	4.62	inactive
SPDYE21 (GeneID 442572)	1	-0.548	-0.886	2.82	inactive
SPDYE21 (GeneID 442572)	2	-1.17	-5.26	1.59	inactive
SPDYE21 (GeneID 442572)	3	-0.345	0.54	3.62	inactive
TSLIG3C (GeneID 147965)	1	1.96	16.8	9.45	inactive
TSLIG3C (GeneID 147965)	2	0.273	4.89	4.42	inactive
TSLIG3C (GeneID 147965)	3	-0.205	1.52	3.6	inactive
TAPT1 (GeneID 202018)	1	6.15	46.2	20.2	active
TAPT1 (GeneID 202018)	2	-0.555	-0.941	2.64	inactive
TAPT1 (GeneID 202018)	3	-0.663	-1.7	2.23	inactive
TPTE2P2 (GeneID 644623)	1	-0.123	2.1	4.44	inactive
TPTE2P2 (GeneID 644623)	2	0.871	9.1	6.54	inactive
TPTE2P2 (GeneID 644623)	3	1.86	16.1	7.83	inactive
MKNK2 (GeneID 2872)	1	-0.0964	2.29	6.36	inactive
MKNK2 (GeneID 2872)	2	-1.24	-5.73	3.48	inactive
MKNK2 (GeneID 2872)	3	0.375	5.61	6	inactive
EIF4G1 (GeneID 1981)	1	0.37	5.57	7.26	inactive
EIF4G1 (GeneID 1981)	2	0.466	6.25	7.64	inactive
EIF4G1 (GeneID 1981)	3	2.14	18	10.1	inactive
KHK (GeneID 3795)	1	-0.4	0.156	5.66	inactive
KHK (GeneID 3795)	2	-0.383	0.276	5.5	inactive
KHK (GeneID 3795)	3	0.196	4.34	5.56	inactive
TTLL6 (GeneID 284076)	1	0.157	4.07	5.77	inactive
TTLL6 (GeneID 284076)	2	-0.627	-1.44	5.28	inactive
TTLL6 (GeneID 284076)	3	-0.455	-0.232	4.87	inactive
ZSCAN2 (GeneID 54993)	1	-0.743	-2.26	3.39	inactive
ZSCAN2 (GeneID 54993)	2	1.26	11.8	11.6	inactive
ZSCAN2 (GeneID 54993)	3	-0.386	0.25	4.53	inactive
SCAMP1-AS1 (GeneID 728769)	1	-0.459	-0.259	3.01	inactive
SCAMP1-AS1 (GeneID 728769)	2	0.619	7.32	6.74	inactive
SCAMP1-AS1 (GeneID 728769)	3	-0.138	2	3.96	inactive
DRC12 (GeneID 283152)	1	0.974	9.82	6.84	inactive
DRC12 (GeneID 283152)	2	0.543	6.78	5.33	inactive
DRC12 (GeneID 283152)	3	1.76	15.3	9.24	inactive
POFUT2 (GeneID 23275)	1	-0.549	-0.898	3.85	inactive
POFUT2 (GeneID 23275)	2	4.78	36.6	21	inactive
POFUT2 (GeneID 23275)	3	-0.477	-0.391	3.73	inactive
SERPINB8 (GeneID 5271)	1	1.57	14	9.34	inactive
SERPINB8 (GeneID 5271)	2	-1.44	-7.15	2.15	inactive
SERPINB8 (GeneID 5271)	3	-1.12	-4.89	2.02	inactive
CCDC85A (GeneID 114800)	1	0.687	7.8	7.22	inactive
CCDC85A (GeneID 114800)	2	-0.346	0.531	3.49	inactive
CCDC85A (GeneID 114800)	3	-0.428	-0.0469	1.8	inactive
MAVS (GeneID 57506)	1	0.586	7.09	7.14	inactive
MAVS (GeneID 57506)	2	0.265	4.83	6.77	inactive
MAVS (GeneID 57506)	3	-0.301	0.851	3.3	inactive
GARIN1A (GeneID 346653)	1	0.537	6.75	6.3	inactive
GARIN1A (GeneID 346653)	2	0.477	6.32	6.03	inactive
GARIN1A (GeneID 346653)	3	0.486	6.39	6.76	inactive
ZNF256 (GeneID 10172)	1	-1.26	-5.93	1.55	inactive
ZNF256 (GeneID 10172)	2	-0.559	-0.966	5.56	inactive
ZNF256 (GeneID 10172)	3	-0.239	1.29	3.88	inactive
EIF3A (GeneID 8661)	1	5.46	41.4	19.5	active
EIF3A (GeneID 8661)	2	4.18	32.4	16.6	inactive
EIF3A (GeneID 8661)	3	1.82	15.8	11.7	inactive
CLN3 (GeneID 1201)	1	-0.384	0.266	3.57	inactive
CLN3 (GeneID 1201)	2	-1.51	-7.68	1.25	inactive
CLN3 (GeneID 1201)	3	1.4	12.8	7.75	inactive
SLC22A13 (GeneID 9390)	1	0.538	6.75	7.76	inactive
SLC22A13 (GeneID 9390)	2	2.61	21.3	13.4	inactive
SLC22A13 (GeneID 9390)	3	0.597	7.17	5.65	inactive

6 entries from above in another layout.
target,siRNA no.,G2 robust z-score,"G2 cells, % of GMNN control",raw share of cells in G2 (%),Outcome
CCDC85A (GeneID 114800),1,0.687,7.8,7.22,inactive
CCDC85A (GeneID 114800),2,-0.346,0.531,3.49,inactive
CCDC85A (GeneID 114800),3,-0.428,-0.0469,1.8,inactive
MAVS (GeneID 57506),1,0.586,7.09,7.14,inactive
MAVS (GeneID 57506),2,0.265,4.83,6.77,inactive
MAVS (GeneID 57506),3,-0.301,0.851,3.3,inactive
